In patent US20260022165A1 (US Dept. of Health and Human Services, published 2026):
Residue numbers refer to the chain shown, from its start. Results are given in words; binding and its absence hold for the method and conditions named. A result given as binding can be weak or reduced; the word gives no strength. Where a sequence is shown, tags or fusion partners need not be part of it.

B1: Ab5 Fab (His-tagged rabbit/human chimeric anti-C3d Fab) (Fab, V domains shown)
VH: QSLEESGGRLVTPGTPLTLTCTVSGFSLSTYTLGWVRQAPGKGLEYIGWIDSSGSAYYASWAKGRFTISKASSTTVDLKMAGLTTEDTATYFCASGNTGGDPLYYGMDPWGPGTLVTVSS
VL: DPVLTQTPSSTSAAVGGTVTIKCQASQNIGRWLAWYQQKPGQPPKLLIYRASDLASGVPSRFKGSGSGTQFTLTISGVQREDAATYYCLGSYSSSDSAFGGGTEVVVK
notes: Fab with rabbit Vκ/human Cκ/rabbit VH, His-tagged; also called Ab5 (κ)
B2: Ab2 Fab (His-tagged rabbit/human chimeric anti-C3d Fab) (Fab, V domains shown)
VH: QSVEESGGRLVTPGTPLTLTCTVSGFSLSSYAMTWVRQAPGKGLEWIGVIGTSGMRYYANWAKGRFTISKTSTTVDLKITSPTTEDTATYFCARANFYVGNDESTDAFDPWGPGTLVTVSS
VL: ALVMTQTPPSLSASVGETVRIRCLASEDIYNTISWYQQKPGKPPTLLIYGASNLKSGVPPRFSGSGSGTDYTLTIGGVQSEDAATYYCLGGYSYSSTGLTFGAGTKVEIK
notes: Fab with rabbit Vκ/human Cκ/rabbit VH, His-tagged; also called Ab2 (κ)
B3: Ab1 Fab (His-tagged rabbit/human chimeric anti-C3d Fab) (Fab, V domains shown)
VH: QSVEESRGRLVTPGTPLTLTCTVSGIDLSSSAITWVRQAPGKGLEWIGMISTDGATYYANWAKGRFTFSKTSTTADLKITSPTTEDTATYFCARGLTNFSIWGPGTLVTVSS
VL: QPVLTQSPSASAALGASAKLTCTLSSAHKTYTIAWYQQQPGESPRYLMLLKSDGSYTRGPGVPDRFSGSSSGADRYLIIPSVQADDEAGYYCGADYNGGYVFGGGTQLTVTG
notes: Fab from the phage display vector pC3C with rabbit Vλ/human Cλ/rabbit VH, His-tagged; also called Ab1 (λ)
B4: Ab4 Fab (His-tagged rabbit/human chimeric anti-C3d Fab) (Fab, V domains shown)
VH: B1 VH with T30R, L33M, G34A, A56T, A71T, A81T, G82S, T98D
VL: DGVMTQTPSSTSAAVGGTVTIKCQASQSIRSWLSWYQQKPGQPPKLLIYEASKLASGVPSRFKGSRSGTEYTLAISGVQREDAATYYCLGSIASDDTAFGAGTNVEIK
notes: Fab with rabbit Vκ/human Cκ/rabbit VH, His-tagged; also called Ab4 (κ)

What follows are binders tested against cynomolgus macaque complement protein C3d (cynomolgus macaque) (assay: flow cytometry; His-tagged Fab on zymosan particles opsonized with cynomolgus macaque serum (C3b/iC3b/C3d); detection AF488 mouse anti-His mAb).
With B1 the binding was “binds”.
In the case of B2, the binding is reported as “binds”.
B3 was tested, and the binding was “binds”.
For B4, the binding was “binds”.
